Results are given in words; binding and its absence hold for the method and conditions named. In cells and extracts the contact can be indirect. A yes stands for co-enrichment or nearness to the bait. Other partners may have been found.
T1: Trs120p-TAP (yeast (endogenous in the yeast strain)) (UniProt Q04183)
T1 sequence: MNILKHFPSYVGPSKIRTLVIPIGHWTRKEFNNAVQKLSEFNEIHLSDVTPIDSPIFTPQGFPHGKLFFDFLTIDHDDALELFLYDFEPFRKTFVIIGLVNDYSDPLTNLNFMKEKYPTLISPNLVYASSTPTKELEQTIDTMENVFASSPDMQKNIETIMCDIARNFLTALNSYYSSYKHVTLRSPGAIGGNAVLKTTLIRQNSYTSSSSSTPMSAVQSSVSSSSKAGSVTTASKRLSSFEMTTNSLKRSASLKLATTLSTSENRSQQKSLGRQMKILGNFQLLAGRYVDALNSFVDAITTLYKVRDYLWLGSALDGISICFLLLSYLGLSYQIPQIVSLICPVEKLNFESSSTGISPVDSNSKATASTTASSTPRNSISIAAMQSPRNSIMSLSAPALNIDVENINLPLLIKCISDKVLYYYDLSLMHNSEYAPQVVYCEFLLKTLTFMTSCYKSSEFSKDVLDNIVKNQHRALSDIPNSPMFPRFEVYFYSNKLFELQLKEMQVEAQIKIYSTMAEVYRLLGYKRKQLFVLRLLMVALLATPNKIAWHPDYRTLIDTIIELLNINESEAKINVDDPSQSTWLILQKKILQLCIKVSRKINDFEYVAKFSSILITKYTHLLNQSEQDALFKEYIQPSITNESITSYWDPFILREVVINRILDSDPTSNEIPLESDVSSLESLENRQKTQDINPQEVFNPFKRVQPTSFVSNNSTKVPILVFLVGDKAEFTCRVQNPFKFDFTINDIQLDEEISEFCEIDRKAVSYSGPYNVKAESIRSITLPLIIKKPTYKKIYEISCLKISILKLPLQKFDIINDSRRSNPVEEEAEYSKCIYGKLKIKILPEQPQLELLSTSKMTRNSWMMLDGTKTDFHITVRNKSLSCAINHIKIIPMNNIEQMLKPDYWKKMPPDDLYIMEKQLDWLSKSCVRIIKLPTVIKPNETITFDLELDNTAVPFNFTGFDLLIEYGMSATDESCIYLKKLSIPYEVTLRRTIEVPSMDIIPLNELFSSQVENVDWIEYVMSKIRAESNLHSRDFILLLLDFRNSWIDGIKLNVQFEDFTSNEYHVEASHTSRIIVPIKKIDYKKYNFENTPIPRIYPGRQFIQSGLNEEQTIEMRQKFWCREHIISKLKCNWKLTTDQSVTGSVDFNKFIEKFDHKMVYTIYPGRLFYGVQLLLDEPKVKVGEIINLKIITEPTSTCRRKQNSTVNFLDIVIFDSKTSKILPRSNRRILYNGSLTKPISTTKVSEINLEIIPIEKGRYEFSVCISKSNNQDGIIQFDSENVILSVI

B1: Trs65p (protein, UniProt P32893 1-560)
chain: MECFVPLRCDLDGSNIEQLRQSHLSRKFIIFDEQLNLWLWFQGNSQENKRFVLQNMIILINEAQVTRTSTIDDYFTQVENNENLWRLKNDCCSKILFKSNVVMNNGYNNQIKFVFEYKSVDANFNNQDSLQDPQAKYTLDKYSSEEILPSFEPVYSWSSAATKSSKNTNNHLEKNNRATHRVSSKNSEVHEADVSRNPNTFTLKLQYPIFSLLNMRLRNISLKSEHCILSSLDFQTSKASEQLTKKFIYPQEHNSFLKLNFQEISYKLIDGTSQIELDPICPLKVPLTAFSYDSISATFKLVLLPKSTQPHRVKITLAYELELHPNLKLPVRTSWETEVTLKRSMPISSTSSQYSSNNNNTNHSASFNGAANNVNSGGLANLRLGGVSSSRFSLGAASTTSLVNSKLSNVKFKFINSNIKVIKGEKFTMRLQIINSSSSPLDLVVYYNNTINPIPSANNVRNSNGINNCGMNNGTIPNSPLTLENQYQLHNKYRKIAEGIILLSNDYKIPVVPPRETYFADLRFIGIMSGYYGTLSGLKVLDLNTNELIEVGNGASVLIQ
B2: Gcs1p (protein, UniProt P35197 1-352)
chain: MSDWKVDPDTRRRLLQLQKIGANKKCMDCGAPNPQWATPKFGAFICLECAGIHRGLGVHISFVRSITMDQFKPEELLRMEKGGNEPLTEWFKSHNIDLSLPQKVKYDNPVAEDYKEKLTCLCEDRVFEEREHLDFDASKLSATSQTAASATPGVAQSREGTPLENRRSATPANSSNGANFQKEKNEAYFAELGKKNQSRPDHLPPSQGGKYQGFGSTPAKPPQERSAGSSNTLSLENFQADPLGTLSRGWGLFSSAVTKSFEDVNETVIKPHVQQWQSGELSEETKRAAAQFGQKFQETSSYGFQAFSNFTKNFNGNAEDSSTAGNTTHTEYQKIDNNDKKNEQDEDKWDDF
B3: PIK1 (protein, UniProt P39104 1-1066)
chain: MHKASSSKKSFDDTIELKKNEQLLKLINSSEFTLHNCVELLCKHSENIGIHYYLCQKLATFPHSELQFYIPQLVQVLVTMETESMALEDLLLRLRAENPHFALLTFWQLQALLTDLSTDPASYGFQVARRVLNNLQTNLFNTSSGSDKNVKIHENVAPALVLSSMIMSAIAFPQLSEVTKPLVESQGRRQKAFVFKLARSAMKDFTKNMTLKNTLLNKKTSRSKRVSSNRSSTPTSPIDLIDPIKTKEDASFRKSRHSEVKLDFDIVDDIGNQVFEERISSSIKLPKRKPKYLDNSYVHRTYDGKNINRDGSISNTAKALDGNKGDYISPKGRNDENNEIGNNEDETGGETEEDADALNSDHFTSSMPDLHNIQPRTSSASSASLEGTPKLNRTNSQPLSRQAFKNSKKANSSLSQEIDLSQLSTTSKIKMLKANYFRCETQFAIALETISQRLARVPTEARLSALRAELFLLNRDLPAEVDIPTLLPPNKKGKLHKLVTITANEAQVLNSAEKVPYLLLIEYLRDEFDFDPTSETNERLLKKISGNQGGLIFDLNYMNRKENNENRNESTLTSNNTRSSVYDSNSFNNGASRNEGLSSTSRSDSASTAHVRTEVNKEEDLGDMSMVKVRNRTDDEAYRNALVIQSAANVPILPDDSQDRSPELNFGSNLDEVLIENGINSKNIHSQTDALADQMRVSAVMLAQLDKSPQQLSESTKQIRAQIISSMKEVQDKFGYHDLEALHGMAGERKLENDLMTGGIDTSYLGEDWATKKERIRKTSEYGHFENWDLCSVIAKTGDDLRQEAFAYQMIQAMANIWVKEKVDVWVKRMKILITSANTGLVETITNAMSVHSIKKALTKKMIEDAELDDKGGIASLNDHFLRAFGNPNGFKYRRAQDNFASSLAAYSVICYLLQVKDRHNGNIMIDNEGHVSHIDFGFMLSNSPGSVGFEAAPFKLTYEYIELLGGVEGEAFKKFVELTKSSFKALRKYADQIVSMCEIMQKDNMQPCFDAGEQTSVQLRQRFQLDLSEKEVDDFVENFLIGKSLGSIYTRIYDQFQLITQGIYS
B4: SLM1 (protein, UniProt P40485 1-686)
chain: MSKNNTMTSAVSDMLSQQQLNLQHLHNLQQHTRSMTSADHANVLQQQQQQQQQQQQQQQQQQQSASFQNGSLTSDINQQSYLNGQPVPSTSNSTFQNNRTLTMNSGGLQGIISNGSPNIDSNTNVTIAVPDPNNNNGKQLQGKNSLTNTSILSRARSSLQRQRLAQQQQQQQDPRSPLVILVPTAAQPTDILAARFSAWRNVIKSVIVYLTEIASIQDEIVRQQLRLSHAVQFPFFSIENQYQPSSQEDKSVQKFFLPLGNGSIQDLPTILNQYHESLASSASKASRELTNDVIPRLEDLRRDLIVKIKEIKSLQSDFKNSCSKELQQTKQAMKQFQESLKDARYSVPKQDPFLTKLALDRQIKKQLQEENFLHEAFDNLETSGAELEKIVVMEIQNSLTIYARLLGQEAQLVFDILISKLDSGFFNVDPQFEWDNFISRDPNFLLPNLPMRTFKEIVYKYQFDPLTYEIKSGFLERRSKFLKSYSKGYYVLTPNFLHEFKTADRKKDLVPVMSLALSECTVTEHSRKNSTSSPNSTGSDAKFVLHAKQNGIIRRGHNWVFKADSYESMMSWFDNLKILTSTSNIQDKYKFITQKLNLNSDGKPKLTNNHTSINKYQLSNANSTMVENDENDDINSNYVGSTVTPKLDNQTNTNTSMSSLPDTNDSELQDQVPNIYIQTPINDFKS
B5: SKN1 (protein, UniProt P33336 1-771)
chain: MSVRNLTNNRHSNSENSVSGSENSFYSSNEQSRQSSSLEPADGQNVRVSGNPFLGSEEFDEDYNSPSGDDERRGANEYSSSSSINYNNDPNSDTSLLANEKNSPERNGQRMSDYKGYYAKTNLTSANNLNNHNNNNYKNIISSSNDNSFASHLQPPDRNLPSHPSSNNMSSFSNNSLIKSPPPFDRYPLVGTRHISAAQSQSQNLINEKKRANMTGSSSSAHDSSLSSTNLYMGEQDFSPFGGYPASFFPLTLDEKEDDDYIHNPNVEEEAKLDRRRFVDDFKHMDRRSFLGLLGILFLFMAGIFIFIVLPAITFSGVVYHHEHVHAANSAGSSSSNTTSKSLTEYQYPQLAAIRTTLVDPDTPDSAKTRVAKDGSKWQLVFSDEFNAEGRTFYDGDDQFWTAPDIHYDATKDLEWYSPDAVTTTNGTLTLRMDAFRNHDLYYRSGMVQSWNKLCFTEGALEVSANLPNYGRVTGLWPGMWTMGNLGRPGYLASTQGVWPYSYEACDAGITPNQSSPDGISYLPGQKLSVCTCDNEDHPNQGVGRGAPEIDILEGEADTILGVGVASQSLQIAPFDIWYMPDYDFIEVYNFTTTTMNTYAGGPFQQAVSAISTLNVTWYEFGEEAGYFQKYAIEYLNDDDNGYIRWFVGENPTFTLYATSLHPSGNIDWRRISKEPMSAILNLGISNNWAYIDWQYIFFPVTMSIDYVRLYQPKGSTSITCDPEDYPTYDYIQSHLNAYYNANLTDWEQAGYTFPKNILTGGCSSSKFSLS
B6: KRE6 (protein, UniProt P32486 1-720)
chain: MPLRNLTETHNFSSTNLDTDGTGDDHDGAPLSSSPSFGQQNDNSTNDNAGLTNPFMGSDEESNARDGESLSSSVHYQPQGSDSSLLHDNSRLDLSQNKGVSDYKGYYSRNNSRAVSTANDNSFLQPPHRAIASSPSLNSNLSKNDILSPPEFDRYPLVGSRVTSMTQLNHHGRSPTSSPGNESSASFSSNPFLGEQDFSPFGGYPASSFPLMIDEKEEDDYLHNPDPEEEARLDRRRFIDDFKYMDKRSASGLAGVLLLFLAAIFIFIVLPALTFTGAIDHESNTEEVTYLTQYQYPQLSAIRTSLVDPDTPDTAKTREAMDGSKWELVFSDEFNAEGRTFYDGDDPYWTAPDVHYDATKDLEWYSPDASTTVNGTLQLRMDAFKNHGLYYRSGMLQSWNKVCFTQGALEISANLPNYGRVSGLWPGLWTMGNLGRPGYLASTQGVWPYSYESCDAGITPNQSSPDGISYLPGQKLSICTCDGEDHPNQGVGRGAPEIDVLEGETDTKIGVGIASQSLQIAPFDIWYMPDYDFIEVYNFTTTTMNTYAGGPFQQAVSAVSTLNVTWYEFGEYGGYFQKYAIEYLNDDDNGYIRWFVGDTPTYTIHAKALHPDGNIGWRRISKEPMSIILNLGISNNWAYIDWQYIFFPVVMSIDYVRIYQPSNAISVTCDPSDYPTYDYIQSHLNAFQNANLTTWEDAGYTFPKNILTGKCTSSKFKLSS
B7: LSB3 (protein, UniProt P43603 1-459)
chain: MGINNPIPRSLKSETKKAAKILASFVKPNQVFGADQVIPPDVLKRAKGLAIITILKAGFLFSGRAGSGVIVARLKDGTWSAPSAIAMAGAGAGGMVGIELTDFVFILNTQDAVKSFSEFGTITLGGNVSVSAGPLGRSAEAAASASAGGVAAVFAYSKSKGLFAGVSVEGSAIIERREANRKFYGDNCTAKMILSGRIRPPPAVDPLFRVLESRAFNYRPSNGGRGSFDDDEDDYYDDDDYYNDIPSSFSSTDASSTRPNTRSTRRRAQSGSRYTFDDDDDDDDYGTGYSRNSRLAPTNSGGSGGKLDDPSGASSYYASHRRSGTAQSRARSSRNRWADDEYDDYDDDYESGYRRGNGRDRTKDREVDDLSNRFSKSRISSASTPQTSQGRFTAPTSPSTSSPKAVALYSFAGEESGDLPFRKGDVITILKKSDSQNDWWTGRVNGREGIFPANYVELV

target: T1, Trs120p-TAP (yeast (endogenous in the yeast strain)); test: affinity purification with mass spectrometry; Trs120p-TAP purified from yeast lysate (1% CHAPS, 100 mM NaCl) on IgG beads, TEV elution, calmodulin beads, EGTA elution; gel bands or total eluate analysed by MS/MS

Row | binding | Binder
1 | binds | B1
2 | binds | B2
3 | binds | B3
4 | binds | B4
5 | binds | B5
6 | binds | B6
7 | binds | B7

Source: PMC4877375
